Measurements: the supplement of paper PMC12819154, “High-throughput peptide-centric local stability assay extends protein–ligand identification to membrane proteins, tissues and bacteria” (Nature Structural & Molecular Biology, 2025)
Some of the results follow. Most entries show no effect beyond the scatter of the controls.

Sequences of proteins named here, by UniProt entry; tags and fusion partners are left off. A change or cut given only in a name is not applied to a line headed by its entry.
UniProt Q8C0Q9: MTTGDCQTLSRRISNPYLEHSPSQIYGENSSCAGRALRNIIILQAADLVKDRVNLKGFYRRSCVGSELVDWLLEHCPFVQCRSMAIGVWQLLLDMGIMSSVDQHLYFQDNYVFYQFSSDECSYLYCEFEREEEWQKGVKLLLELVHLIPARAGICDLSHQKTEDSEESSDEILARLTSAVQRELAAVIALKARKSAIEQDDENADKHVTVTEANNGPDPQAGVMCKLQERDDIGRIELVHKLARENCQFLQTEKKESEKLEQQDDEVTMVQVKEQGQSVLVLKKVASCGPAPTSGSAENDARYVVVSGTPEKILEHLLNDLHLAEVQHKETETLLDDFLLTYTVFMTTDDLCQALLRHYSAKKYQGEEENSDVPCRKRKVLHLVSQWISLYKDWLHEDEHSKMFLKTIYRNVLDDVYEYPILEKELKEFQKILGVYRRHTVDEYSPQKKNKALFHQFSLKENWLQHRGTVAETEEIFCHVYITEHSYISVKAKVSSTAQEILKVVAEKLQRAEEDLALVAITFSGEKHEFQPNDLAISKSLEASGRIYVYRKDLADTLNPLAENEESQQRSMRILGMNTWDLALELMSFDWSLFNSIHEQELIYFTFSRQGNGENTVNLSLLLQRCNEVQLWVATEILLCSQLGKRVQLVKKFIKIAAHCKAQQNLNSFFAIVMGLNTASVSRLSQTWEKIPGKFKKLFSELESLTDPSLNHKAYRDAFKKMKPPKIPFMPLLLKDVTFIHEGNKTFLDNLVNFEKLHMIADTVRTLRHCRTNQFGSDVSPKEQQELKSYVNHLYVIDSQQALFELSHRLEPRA
UniProt Q8BZ00: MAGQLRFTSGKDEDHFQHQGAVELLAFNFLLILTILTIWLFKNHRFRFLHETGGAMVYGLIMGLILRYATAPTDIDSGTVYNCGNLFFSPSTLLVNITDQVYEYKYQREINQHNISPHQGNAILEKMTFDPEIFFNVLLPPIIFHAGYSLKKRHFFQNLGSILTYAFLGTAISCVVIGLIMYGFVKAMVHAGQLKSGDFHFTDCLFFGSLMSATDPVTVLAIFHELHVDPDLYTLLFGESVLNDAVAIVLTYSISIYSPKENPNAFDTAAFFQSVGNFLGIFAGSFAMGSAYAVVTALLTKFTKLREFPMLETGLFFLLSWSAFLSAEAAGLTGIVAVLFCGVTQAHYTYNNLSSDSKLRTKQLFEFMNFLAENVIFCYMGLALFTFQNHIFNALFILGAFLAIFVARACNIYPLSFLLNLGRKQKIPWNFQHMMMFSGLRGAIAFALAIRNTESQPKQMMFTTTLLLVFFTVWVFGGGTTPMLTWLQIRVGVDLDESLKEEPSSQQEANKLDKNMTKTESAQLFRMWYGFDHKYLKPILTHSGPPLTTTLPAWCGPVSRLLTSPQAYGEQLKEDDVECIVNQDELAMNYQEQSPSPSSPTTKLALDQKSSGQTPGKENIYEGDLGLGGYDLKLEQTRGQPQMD
UniProt Q8C407: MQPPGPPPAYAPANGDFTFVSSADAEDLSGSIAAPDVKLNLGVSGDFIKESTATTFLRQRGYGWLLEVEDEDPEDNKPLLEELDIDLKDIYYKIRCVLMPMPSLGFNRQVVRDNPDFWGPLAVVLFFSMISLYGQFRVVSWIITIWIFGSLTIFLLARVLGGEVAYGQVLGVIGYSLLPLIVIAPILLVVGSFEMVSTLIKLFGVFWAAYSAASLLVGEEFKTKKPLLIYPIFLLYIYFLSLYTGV
UniProt Q8BWF0: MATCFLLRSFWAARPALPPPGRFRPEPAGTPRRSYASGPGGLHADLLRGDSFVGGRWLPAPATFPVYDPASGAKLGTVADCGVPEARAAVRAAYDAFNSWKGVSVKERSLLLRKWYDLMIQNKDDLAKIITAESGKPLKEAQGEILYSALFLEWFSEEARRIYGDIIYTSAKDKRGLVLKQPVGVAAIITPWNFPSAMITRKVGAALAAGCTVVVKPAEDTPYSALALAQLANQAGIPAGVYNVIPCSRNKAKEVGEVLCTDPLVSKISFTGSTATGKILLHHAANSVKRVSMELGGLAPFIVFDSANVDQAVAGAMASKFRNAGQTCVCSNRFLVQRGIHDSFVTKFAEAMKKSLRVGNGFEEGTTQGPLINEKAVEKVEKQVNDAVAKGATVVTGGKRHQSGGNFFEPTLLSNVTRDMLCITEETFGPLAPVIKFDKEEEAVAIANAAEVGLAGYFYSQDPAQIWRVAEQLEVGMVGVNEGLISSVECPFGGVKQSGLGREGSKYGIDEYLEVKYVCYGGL
UniProt Q8BWP5: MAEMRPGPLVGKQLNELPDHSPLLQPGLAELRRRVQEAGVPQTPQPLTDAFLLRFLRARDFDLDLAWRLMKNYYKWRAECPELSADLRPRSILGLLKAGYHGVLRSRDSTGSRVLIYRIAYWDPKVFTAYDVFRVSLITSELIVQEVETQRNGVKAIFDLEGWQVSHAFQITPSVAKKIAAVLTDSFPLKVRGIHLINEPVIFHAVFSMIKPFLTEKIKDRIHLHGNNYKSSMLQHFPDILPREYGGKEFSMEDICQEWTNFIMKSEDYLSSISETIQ
UniProt Q8BVZ1: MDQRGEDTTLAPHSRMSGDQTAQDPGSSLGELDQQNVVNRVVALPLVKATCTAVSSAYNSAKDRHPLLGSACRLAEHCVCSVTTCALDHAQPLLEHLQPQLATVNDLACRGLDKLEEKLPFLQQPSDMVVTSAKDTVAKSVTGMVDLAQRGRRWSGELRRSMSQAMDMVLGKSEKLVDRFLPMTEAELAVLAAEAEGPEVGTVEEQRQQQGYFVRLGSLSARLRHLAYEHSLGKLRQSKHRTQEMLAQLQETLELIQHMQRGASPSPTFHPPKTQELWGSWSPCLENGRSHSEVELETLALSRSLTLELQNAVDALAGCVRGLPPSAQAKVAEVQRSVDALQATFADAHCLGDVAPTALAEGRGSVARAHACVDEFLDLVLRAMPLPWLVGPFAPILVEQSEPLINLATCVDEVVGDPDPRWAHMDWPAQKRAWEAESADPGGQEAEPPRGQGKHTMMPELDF
UniProt Q8C6B9: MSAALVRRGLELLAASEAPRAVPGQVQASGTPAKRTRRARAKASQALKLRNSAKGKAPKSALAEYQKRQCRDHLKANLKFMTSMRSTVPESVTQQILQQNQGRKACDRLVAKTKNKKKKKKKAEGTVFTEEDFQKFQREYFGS
UniProt Q8C196: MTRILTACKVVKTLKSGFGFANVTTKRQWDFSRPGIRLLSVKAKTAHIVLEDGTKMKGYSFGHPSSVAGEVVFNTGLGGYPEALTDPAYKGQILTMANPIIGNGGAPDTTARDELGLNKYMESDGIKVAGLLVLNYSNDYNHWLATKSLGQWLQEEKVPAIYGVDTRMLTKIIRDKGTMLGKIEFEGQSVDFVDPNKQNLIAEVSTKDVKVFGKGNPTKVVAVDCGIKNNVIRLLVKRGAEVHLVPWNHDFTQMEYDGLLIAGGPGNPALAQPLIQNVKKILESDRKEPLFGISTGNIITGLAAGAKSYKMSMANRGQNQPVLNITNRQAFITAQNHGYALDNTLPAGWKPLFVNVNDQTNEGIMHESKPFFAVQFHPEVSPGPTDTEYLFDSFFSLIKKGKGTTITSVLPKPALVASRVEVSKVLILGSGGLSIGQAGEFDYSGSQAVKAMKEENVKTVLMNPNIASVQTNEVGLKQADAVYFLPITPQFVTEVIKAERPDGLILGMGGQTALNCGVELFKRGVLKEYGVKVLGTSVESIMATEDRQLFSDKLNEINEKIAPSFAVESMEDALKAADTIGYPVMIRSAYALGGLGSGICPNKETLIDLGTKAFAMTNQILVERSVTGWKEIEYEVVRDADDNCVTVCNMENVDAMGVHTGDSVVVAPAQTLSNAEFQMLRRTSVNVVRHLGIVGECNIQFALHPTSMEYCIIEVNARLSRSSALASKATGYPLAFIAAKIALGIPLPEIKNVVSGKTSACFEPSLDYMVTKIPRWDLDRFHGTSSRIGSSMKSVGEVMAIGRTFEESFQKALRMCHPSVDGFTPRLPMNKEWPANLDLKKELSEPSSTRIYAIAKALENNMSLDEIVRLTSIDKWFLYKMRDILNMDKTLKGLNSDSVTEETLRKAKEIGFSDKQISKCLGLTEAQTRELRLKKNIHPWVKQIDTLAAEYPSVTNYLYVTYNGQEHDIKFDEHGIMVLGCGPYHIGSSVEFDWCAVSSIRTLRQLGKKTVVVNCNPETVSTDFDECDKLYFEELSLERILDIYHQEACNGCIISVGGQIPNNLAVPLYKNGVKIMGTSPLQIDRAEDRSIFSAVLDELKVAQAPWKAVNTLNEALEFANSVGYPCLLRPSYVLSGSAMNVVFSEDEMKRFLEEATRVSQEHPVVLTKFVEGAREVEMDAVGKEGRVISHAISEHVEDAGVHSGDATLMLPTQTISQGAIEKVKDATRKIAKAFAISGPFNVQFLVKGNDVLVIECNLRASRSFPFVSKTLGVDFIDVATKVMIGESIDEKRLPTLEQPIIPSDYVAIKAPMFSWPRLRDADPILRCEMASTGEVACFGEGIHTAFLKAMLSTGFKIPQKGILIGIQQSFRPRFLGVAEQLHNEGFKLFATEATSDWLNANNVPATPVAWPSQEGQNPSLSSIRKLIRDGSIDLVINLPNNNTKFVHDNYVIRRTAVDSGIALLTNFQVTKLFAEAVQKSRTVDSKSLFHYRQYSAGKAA
UniProt Q8C1M2: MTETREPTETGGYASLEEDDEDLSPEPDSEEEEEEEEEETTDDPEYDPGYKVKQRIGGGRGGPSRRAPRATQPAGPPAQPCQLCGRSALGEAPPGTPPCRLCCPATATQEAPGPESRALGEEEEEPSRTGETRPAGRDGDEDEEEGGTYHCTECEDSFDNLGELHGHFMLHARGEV
UniProt Q8C181: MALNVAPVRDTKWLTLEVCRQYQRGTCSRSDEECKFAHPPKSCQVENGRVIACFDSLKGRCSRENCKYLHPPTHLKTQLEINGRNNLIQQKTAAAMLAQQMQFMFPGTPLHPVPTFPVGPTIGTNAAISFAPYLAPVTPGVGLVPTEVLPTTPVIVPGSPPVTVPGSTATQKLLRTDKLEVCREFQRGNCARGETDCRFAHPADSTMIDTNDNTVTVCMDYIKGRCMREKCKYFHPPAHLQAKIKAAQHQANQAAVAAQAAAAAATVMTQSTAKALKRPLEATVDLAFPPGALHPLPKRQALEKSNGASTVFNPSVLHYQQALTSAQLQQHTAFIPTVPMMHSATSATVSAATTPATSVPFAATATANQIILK
UniProt Q8C310: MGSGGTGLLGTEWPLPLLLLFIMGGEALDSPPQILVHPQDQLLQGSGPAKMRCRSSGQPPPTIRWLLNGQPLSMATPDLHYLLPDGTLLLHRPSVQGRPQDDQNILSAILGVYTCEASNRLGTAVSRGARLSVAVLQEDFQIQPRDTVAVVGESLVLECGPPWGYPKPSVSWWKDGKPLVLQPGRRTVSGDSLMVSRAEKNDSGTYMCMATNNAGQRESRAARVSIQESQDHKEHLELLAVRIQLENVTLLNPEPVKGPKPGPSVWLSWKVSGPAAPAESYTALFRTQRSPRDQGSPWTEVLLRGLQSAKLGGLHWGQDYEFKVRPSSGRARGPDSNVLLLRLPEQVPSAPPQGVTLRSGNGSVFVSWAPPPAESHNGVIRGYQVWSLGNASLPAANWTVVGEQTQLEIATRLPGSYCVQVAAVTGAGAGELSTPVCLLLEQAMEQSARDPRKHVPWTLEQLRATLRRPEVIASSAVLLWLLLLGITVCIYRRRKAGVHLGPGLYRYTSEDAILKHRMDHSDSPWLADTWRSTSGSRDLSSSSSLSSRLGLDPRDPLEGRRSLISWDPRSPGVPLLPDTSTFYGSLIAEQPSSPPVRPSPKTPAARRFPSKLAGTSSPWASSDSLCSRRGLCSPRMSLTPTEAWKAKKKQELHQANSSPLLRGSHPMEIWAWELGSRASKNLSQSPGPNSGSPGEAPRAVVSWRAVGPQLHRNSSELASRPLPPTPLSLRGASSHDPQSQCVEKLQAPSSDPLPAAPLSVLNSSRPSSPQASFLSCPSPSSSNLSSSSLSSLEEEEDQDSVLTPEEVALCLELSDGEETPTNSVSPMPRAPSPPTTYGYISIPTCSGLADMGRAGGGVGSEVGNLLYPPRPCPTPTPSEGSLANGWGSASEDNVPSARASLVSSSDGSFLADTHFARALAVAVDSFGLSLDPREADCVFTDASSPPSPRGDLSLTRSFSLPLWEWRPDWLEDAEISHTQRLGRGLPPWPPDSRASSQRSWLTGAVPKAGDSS
UniProt Q8BXL7: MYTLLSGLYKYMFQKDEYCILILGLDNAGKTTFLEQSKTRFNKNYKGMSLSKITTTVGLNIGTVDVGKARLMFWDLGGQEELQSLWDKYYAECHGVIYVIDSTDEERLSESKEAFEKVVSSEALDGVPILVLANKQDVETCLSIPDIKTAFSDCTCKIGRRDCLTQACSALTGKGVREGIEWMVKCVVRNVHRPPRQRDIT

Compound: CN[C@@H]1C[C@H]2O[C@@](C)([C@@H]1OC)n1c3ccccc3c3c4c(c5c6ccccc6n2c5c31)C(=O)NC4 [staurosporine]
Test: log2 fold change of tryptic peptide abundance, ligand vs vehicle (limited proteolysis) (log2 ratio); higher = more trypsin-susceptible (destabilized)
Settings: ligand concentration: 20 uM; sample: mouse liver crude lysate; replicate design: treated separately

| Target | log2 fold change |
| --- | --- |
| UniProt Q8C0Q9 (peptide sequence: TFLDNLVNFEK, peptide start residue: 746) | -0.0697 |
| UniProt Q8C0Z1 (peptide sequence: GSLGVDGDGVALLHVTR, peptide start residue: 257) | 0.731 |
| UniProt Q8BXN9 (peptide sequence: MITHFER, peptide start residue: 545) | 0.119 |
| UniProt Q8C6M1 (peptide sequence: EWEAFVK, peptide start residue: 829) | -0.438 |
| UniProt Q8BZ00 (peptide sequence: MWYGFDHK, peptide start residue: 527) | 0.145 |
| UniProt Q8C407 (peptide sequence: ESTATTFLR, peptide start residue: 50) | 0.266 |
| UniProt Q8C079 (peptide sequence: DIEMFLESSR, peptide start residue: 432) | 0.246 |
| UniProt Q8BWF0 (peptide sequence: GATVVTGGKR, peptide start residue: 391) | 0.134 |
| UniProt Q8C761 (peptide sequence: EKAEELPLAQKR, peptide start residue: 346) | 0.386 |
| UniProt Q8BVR6 (peptide sequence: KKQNVDGLVLDTLAVIR, peptide start residue: 96) | -0.136 |
| UniProt Q8C0P7 (peptide sequence: ESSAEDCIVPTK, peptide start residue: 432) | -0.321 |
| UniProt Q8BYI6 (peptide sequence: NENAQTPLVGR, peptide start residue: 167) | 0.171 |
| UniProt Q8BWP5 (peptide sequence: VFTAYDVFR, peptide start residue: 126) | -0.456 |
| UniProt Q8BWD8 (peptide sequence: VFLLLQK, peptide start residue: 308) | -0.73 |
| UniProt Q8BVZ1 (peptide sequence: SMSQAMDMVLGK, peptide start residue: 161) | 0.429 |
| UniProt Q8C147 (peptide sequence: AKLEEALLR, peptide start residue: 1363) | -0.137 |
| UniProt Q8C6B9 (peptide sequence: RGLELLAASEAPR, peptide start residue: 8) | -0.136 |
| UniProt Q8BWQ5 (peptide sequence: HLGVEIEK, peptide start residue: 291) | 0.363 |
| UniProt Q8C196 (peptide sequence: LPMNKEWPANLDLKK, peptide start residue: 827) | -0.256 |
| UniProt Q8C1M2 (peptide sequence: ALGEEEEEPSR, peptide start residue: 118) | -0.159 |
| UniProt Q8BX57 (peptide sequence: KAQTCDHSAPK, peptide start residue: 570) | 0.357 |
| UniProt Q8C181 (peptide sequence: FAHPPKSCQVENGR, peptide start residue: 36) | -0.161 |
| UniProt Q8C310 (peptide sequence: AVGPQLHR, peptide start residue: 705) | -0.447 |
| UniProt Q8BXL7 (peptide sequence: EGIEWMVK, peptide start residue: 178) | -0.335 |

An excerpt of these results, field by field.
UniProt Q8C6B9 (peptide sequence: RGLELLAASEAPR, peptide start residue: 8)
  log2 fold change: -0.136
UniProt Q8BWQ5 (peptide sequence: HLGVEIEK, peptide start residue: 291)
  log2 fold change: 0.363
